Where two headings read alike, the source gives them in different places. Some of these results come from one statement about several compounds together.
Biological target: T1, TYK2 kinase domain (Homo sapiens, UniProt P29597)
T1 construct: made in house; host or cells: SF9 insect cells (recombinant baculovirus)
T1 sequence (P29597 873-1187): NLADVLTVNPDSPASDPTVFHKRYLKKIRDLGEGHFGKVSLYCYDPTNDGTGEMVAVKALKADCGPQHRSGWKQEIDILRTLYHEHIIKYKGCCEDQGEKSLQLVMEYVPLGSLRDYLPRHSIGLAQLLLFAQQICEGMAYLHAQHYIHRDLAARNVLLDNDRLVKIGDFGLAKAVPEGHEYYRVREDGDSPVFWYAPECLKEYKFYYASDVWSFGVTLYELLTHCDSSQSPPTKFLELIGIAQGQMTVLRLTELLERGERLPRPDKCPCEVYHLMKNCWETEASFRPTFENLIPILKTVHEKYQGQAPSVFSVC
Assay: TYK2 inhibition assay (Caliper LabChip, isolated kinase domain)
Type: biochemical
Settings: read-out: Ki values for TYK2 inhibition
From the text: The catalytically active kinase domain of human JAK1, JAK2, JAK3 or TYK2 was purified from extracts of SF9 insect cells infected with a recombinant baculovirus expression vector encoding the human JAK1, JAK2, JAK3 or TYK2 kinase domains (JAK1 amino acid residues N852-D1154 according to the numbering of GenBank sequence accession number P23458, JAK2 amino acid residues D812-G1132 according to the numbering of GenBank sequence accession number NP_004963.1; JAK3 amino acid residues S783-S1124 according to the numbering of GenBank sequence accession number P52333, and TYK2 amino acid residues N873-C1187 according to the numbering of GenBank sequence accession number P29597). The activity of the JAK1, JAK2, JAK3 or TYK2 kinase domains can be measured by a number of direct and indirect methods, including quantification of phosphorylation of peptide substrates derived from the human JAK3 protein (Saltzman et al., Biochem. Biophys. Res. Commun. 246:627-633 (2004)). The activity of the JAK1, JAK2, JAK3 or TYK2 kinase domains was measured in vitro by monitoring phosphorylation of JAK3 derived peptides using the Caliper LabChip technology (see Examples).
The activity of the isolated JAK1, JAK2 or TYK2 kinase domain was measured by monitoring phosphorylation of a peptide derived from JAK3 (SEQ ID NO:1 […] fluorescently labeled on the N-terminus with 5-carboxyfluorescein using the Caliper LabChip technology (Caliper Life Sciences, Hopkinton, Mass.). […] Reactions were incubated at 22° C. in 384-well polypropylene microtiter plates for 30 minutes and then stopped by addition of 25 uL of an EDTA containing solution (100 mM Hepes pH 7.2, 0.015% Brij-35, 150 mM EDTA), resulting in a final EDTA concentration of 50 mM. After termination of the kinase reaction, the proportion of phosphorylated product was determined as a fraction of total peptide substrate using the Caliper LabChip 3000 according to the manufacturer's specifications. Ki values were then determined using the Morrison tight binding model. Morrison, J. F., Biochim. Biophys. Acta. […]

SMILES	Ki [µM]	Ki (isolated TYK2 kinase domain, 25 uM ATP, values given as 'about') [µM]
CC(C)CC(=O)Nc1cc(NC(=O)c2c(Cl)cccc2Cl)ccn1 [Example 200, 2,6-dichloro-N-(2-(3-methylbutanamido)-pyridin-4-yl)benzamide]	< 3.5	–
O=C(CF)Nc1cc(NC(=O)c2c(Cl)cccc2Cl)ccn1 [Example 184, 2,6-dichloro-N-(2-(2-fluoroacetamido)-pyridin-4-yl)benzamide]	–	< 3.5
O=C(Nc1cc(NC(=O)c2c(Cl)cccc2Cl)ccn1)Oc1ccccc1 [Example 350, phenyl 4-(2,6-dichlorobenzamido)pyridin-2-ylcarbamate]	< 3.5	–
